From PubChem BioAssay AID2685 (National Center for Advancing Translational Sciences (NCATS), 2010)
Some of the results follow. These are further read-outs of the screen, such as a control signal, another cell line or another target. No call is given for them. Compounds called inactive in the main read-out are mostly missing here. Potencies come from curve fits of mixed quality, noted in brackets.

Experiment: qHTS Assay for Lipid Storage Modulators in Drosophila S3 Cells;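 for cell number change: cells counted by Cell Tracker Red CMTPX staining in the red channel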
Conditions: BODIPY lipid droplet fluorescence, 18-24 h; for cell number change: measured here: cell count max response, cells fed with added oleic acid
In short: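 Drosophila S3 cells got compounds at several concentrations plus oleic acid (400 uM solution). Laser-scanning cytometry with 488 nm excitation read lipid droplets at 500-530 nm and cells at 575-640 nm. Percent activity was relative to 20 uM Triacsin C.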

[1] = measured here: cell number channel AC50, cells fed with added oleic acid
[2] = measured here: lipid fluorescence (Fed channel) AC50, cells fed with added oleic acid

For `CCn1cnc2sc(C(=O)Nc3ccc4c(c3)OCO4)c(C)c2c1=O`, which AC50 [1] is on record?
The AC50 was 461 nM [rising, full curve].

What about the AC50 [2] of the same molecule?
The AC50 was 651 nM [rising, full curve].

With `Cc1cccc(C)c1NC(=O)N1C2CCCC1CC(NC(=O)C(C)(C)C)C2` (centres undefined) as the molecule, how does the cell number change read?
Its cell number change is -10.7%.

Which results are given for `CNC(=O)COc1cccc(C(=O)NCc2ccccc2)c1`?
cell number change: 27.3%; AC50 [2]: 10300 nM [rising, partial curve, poor fit]

For `Cc1cccc(CSc2nnc(-c3ccco3)n2C)c1`, which cell number change is on record?
The cell number change was -18.1%.

What about the AC50 [1] of the same molecule?
Its AC50 is 6510 nM [falling, single point].

With `O=S(=O)(c1ccc(S(=O)(=O)n2cnc3ccccc32)cc1)N1CCCCCC1` as the molecule, how does the cell number change read?
Its cell number change is 1.84%.

Which cell number change does the source give for `COc1cc(C)c(C)cc1S(=O)(=O)n1c(C)nc2ccccc21` here?
The cell number change was 25.6%.

With `CC1CCc2nn(CC(=O)NCCCN3CCCC3=O)cc2C1` (centres undefined) as the molecule, how does the cell number change read?
The cell number change was 22.8%.

What about the AC50 [2] of the same molecule?
Its AC50 is 291 nM [falling, partial curve, poor fit].

Which cell number change does the source give for `COc1cc(Cl)c(C)cc1NCC(=O)Nc1cccc(S(=O)(=O)N2CCCC2)c1` here?
The cell number change was -5.94%.

And the AC50 [2]?
The AC50 was 103 nM [rising, full curve, poor fit].

What does the source list for `COc1cccc(-n2nnc3c(=O)n(Cc4ccc(C)cc4)cnc32)c1`?
cell number change: -20.5%; AC50 [2]: 164 nM [falling, full curve, poor fit]

Which cell number change does the source give for `CCc1sc(NC(=O)CN2CCC(C(N)=O)CC2)nc1-c1ccccc1` here?
The cell number change was 0.794%.

What about the AC50 [2] of the same molecule?
The AC50 was 25900 nM [falling, single point].

With `O=C(Nc1ccc2c(c1)OCCO2)Nc1ccc2c(c1)OCO2` as the molecule, how does the cell number change read?
Its cell number change is 6.89%.

And the AC50 [2]?
The AC50 was 2060 nM [falling, partial curve].

What does the source list for `O=C(NCCCN1CCOCC1)C(C(=O)c1ccccc1)n1ccccc1=O` (centres undefined)?
cell number change: -8.96%; AC50 [2]: 146 nM [falling, full curve, poor fit]

Which results are given for `COc1ccccc1OCC(=O)NCC1CCCN(Cc2cnn(C(C)C)c2)C1` (centres undefined)?
cell number change: 1.76%; AC50 [2]: 146 nM [rising, full curve, poor fit]

Which cell number change does the source give for `CCn1c(SCC(=O)Nc2ccc3c(c2)OCCO3)nnc1-c1ccccn1` here?
The cell number change was -24.8%.

What about the AC50 [1] of the same molecule?
The AC50 was 4110 nM [rising, single point].

And the AC50 [2]?
The AC50 was 326 nM [rising, full curve, poor fit].

With `O=C(NCc1ccc2c(c1)OCO2)c1ccc(-n2cnnn2)cc1` as the molecule, how does the cell number change read?
Its cell number change is -11.5%.

What about the AC50 [2] of the same molecule?
Its AC50 is 1640 nM [rising, full curve].

Which cell number change does the source give for `O=C(CCn1c(=S)oc2ccccc21)Nc1cc([N+](=O)[O-])ccc1F` here?
The cell number change was 31.5%.

And the AC50 [1]?
The AC50 was 14600 nM [rising, partial curve, poor fit].

And the AC50 [2]?
Its AC50 is 29100 nM [rising, single point].

Which cell number change does the source give for `CCOC(=O)CSc1nnc(C2CCCCC2)n1C` here?
The cell number change was -17.2%.

And the AC50 [1]?
The AC50 was 6.51 nM [falling, full curve, poor fit].

And the AC50 [2]?
The AC50 was 411 nM [falling, full curve, poor fit].
